Measurements published in PMC6168483.
These are yes or no findings as the source states them, for the method shown. Some results given as binding are weak or reduced against the parent protein; the word gives no strength. One block for each binder: values may come before it.

Amino acid sequences for entries named in this document (tags omitted).
UniProt Q9Y618: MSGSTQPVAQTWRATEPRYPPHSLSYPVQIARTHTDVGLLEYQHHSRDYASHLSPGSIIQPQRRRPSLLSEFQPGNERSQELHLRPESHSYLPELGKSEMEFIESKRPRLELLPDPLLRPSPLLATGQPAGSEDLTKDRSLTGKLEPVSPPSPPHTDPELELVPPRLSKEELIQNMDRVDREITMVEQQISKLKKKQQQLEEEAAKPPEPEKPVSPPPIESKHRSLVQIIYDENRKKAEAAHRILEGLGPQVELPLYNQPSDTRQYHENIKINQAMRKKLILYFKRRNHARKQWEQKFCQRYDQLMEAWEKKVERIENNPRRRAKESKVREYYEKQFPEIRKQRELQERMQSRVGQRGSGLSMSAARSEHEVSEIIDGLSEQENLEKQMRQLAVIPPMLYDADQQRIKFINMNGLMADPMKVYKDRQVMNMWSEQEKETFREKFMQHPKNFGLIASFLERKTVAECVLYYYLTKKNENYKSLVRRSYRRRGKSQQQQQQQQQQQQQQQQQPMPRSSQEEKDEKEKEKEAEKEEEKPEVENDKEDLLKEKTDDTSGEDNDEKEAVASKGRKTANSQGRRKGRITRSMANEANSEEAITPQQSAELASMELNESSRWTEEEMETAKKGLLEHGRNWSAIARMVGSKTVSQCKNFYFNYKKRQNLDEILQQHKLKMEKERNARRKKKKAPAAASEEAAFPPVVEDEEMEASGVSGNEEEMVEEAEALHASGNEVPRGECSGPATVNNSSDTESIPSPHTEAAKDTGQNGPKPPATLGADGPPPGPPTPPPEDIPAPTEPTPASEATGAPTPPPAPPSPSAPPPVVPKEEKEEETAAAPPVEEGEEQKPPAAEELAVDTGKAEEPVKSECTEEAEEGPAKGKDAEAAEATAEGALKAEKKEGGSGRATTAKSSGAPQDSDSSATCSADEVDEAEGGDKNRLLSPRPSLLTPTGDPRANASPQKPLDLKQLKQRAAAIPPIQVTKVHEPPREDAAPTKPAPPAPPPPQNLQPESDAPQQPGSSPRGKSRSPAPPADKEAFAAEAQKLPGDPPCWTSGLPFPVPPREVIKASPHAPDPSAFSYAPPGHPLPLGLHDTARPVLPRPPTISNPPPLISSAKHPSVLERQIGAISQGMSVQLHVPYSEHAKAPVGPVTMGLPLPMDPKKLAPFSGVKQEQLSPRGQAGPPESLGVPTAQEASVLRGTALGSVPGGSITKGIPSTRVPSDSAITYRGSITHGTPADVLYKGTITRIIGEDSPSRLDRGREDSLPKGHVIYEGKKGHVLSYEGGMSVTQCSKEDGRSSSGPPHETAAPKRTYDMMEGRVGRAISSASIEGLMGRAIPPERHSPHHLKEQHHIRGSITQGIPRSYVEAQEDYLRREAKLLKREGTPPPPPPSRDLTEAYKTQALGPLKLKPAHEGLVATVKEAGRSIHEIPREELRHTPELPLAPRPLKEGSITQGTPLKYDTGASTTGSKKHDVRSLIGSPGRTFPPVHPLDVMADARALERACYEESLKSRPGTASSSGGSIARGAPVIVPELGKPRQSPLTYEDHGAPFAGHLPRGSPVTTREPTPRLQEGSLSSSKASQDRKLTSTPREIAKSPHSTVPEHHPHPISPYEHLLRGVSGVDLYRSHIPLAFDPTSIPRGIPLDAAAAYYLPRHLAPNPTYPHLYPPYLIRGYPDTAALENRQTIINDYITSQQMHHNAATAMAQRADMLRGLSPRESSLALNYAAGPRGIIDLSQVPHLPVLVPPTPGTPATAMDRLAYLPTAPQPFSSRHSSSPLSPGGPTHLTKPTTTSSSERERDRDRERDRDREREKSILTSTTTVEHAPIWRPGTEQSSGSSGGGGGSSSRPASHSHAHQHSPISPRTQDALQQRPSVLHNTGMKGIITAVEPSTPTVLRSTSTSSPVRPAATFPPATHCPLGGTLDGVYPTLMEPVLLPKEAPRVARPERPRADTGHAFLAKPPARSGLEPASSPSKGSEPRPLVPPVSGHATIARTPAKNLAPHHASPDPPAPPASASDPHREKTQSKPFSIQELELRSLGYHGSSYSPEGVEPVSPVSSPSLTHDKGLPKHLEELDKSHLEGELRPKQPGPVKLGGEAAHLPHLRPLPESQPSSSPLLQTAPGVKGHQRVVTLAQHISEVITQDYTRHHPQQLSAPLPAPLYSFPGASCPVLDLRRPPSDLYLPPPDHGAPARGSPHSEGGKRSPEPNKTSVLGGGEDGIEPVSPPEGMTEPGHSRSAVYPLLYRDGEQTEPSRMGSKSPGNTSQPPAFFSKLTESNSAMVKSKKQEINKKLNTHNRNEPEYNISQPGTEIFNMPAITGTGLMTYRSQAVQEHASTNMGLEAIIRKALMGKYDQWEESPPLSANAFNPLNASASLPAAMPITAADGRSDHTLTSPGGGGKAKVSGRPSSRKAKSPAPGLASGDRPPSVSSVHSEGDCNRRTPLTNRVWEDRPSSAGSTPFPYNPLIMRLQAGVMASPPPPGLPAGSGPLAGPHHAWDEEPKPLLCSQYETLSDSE

Columns and labels:
[1] = molecular target: SMRT, Q9Y618; experiment: co-purification of a recombinant complex; complexes transfected, expressed and purified as previously described (refs 23, 43); bait and purification steps not given; settings: remark: other sources report otherwise
[2] = molecular target: SMRT (UniProt Q9Y618); experiment: as above

binding [1]: binds
B1: HDAC3, O15379 1-428 (enzyme)
chain: MAKTVAYFYDPDVGNFHYGAGHPMKPHRLALTHSLVLHYGLYKKMIVFKPYQASQHDMCRFHSEDYIDFLQRVSPTNMQGFTKSLNAFNVGDDCPVFPGLFEFCSRYTGASLQGATQLNNKICDIAINWAGGLHHAKKFEASGFCYVNDIVIGILELLKYHPRVLYIDIDIHHGDGVQEAFYLTDRVMTVSFHKYGNYFFPGTGDMYEVGAESGRYYCLNVPLRDGIDDQSYKHLFQPVINQVVDFYQPTCIVLQCGADSLGCDRLGCFNLSIRGHGECVEYVKSFNIPLLVLGGGGYTVRNVARCWTYETSLLVEEAISEELPYSEYFEYFAPDFTLHPDVSTRIENQNSRQYLDQIRQTIFENLKMLNHAPSVQIHDVPADLLTYDRTDEADAEERGPEENYSRPEAPNEFYDGDHDNDKESDVEI

binding [2]: binds
B2: TBL1 (protein, UniProt O60907 1-577)
chain: MTELAGASSSCCHRPAGRGAMQSVLHHFQRLRGREGGSHFINTSSPRGEAKMSITSDEVNFLVYRYLQESGFSHSAFTFGIESHISQSNINGTLVPPAALISILQKGLQYVEAEISINEDGTVFDGRPIESLSLIDAVMPDVVQTRQQAFREKLAQQQASAAAAAAAATAAATAATTTSAGVSHQNPSKNREATVNGEENRAHSVNNHAKPMEIDGEVEIPSSKATVLRGHESEVFICAWNPVSDLLASGSGDSTARIWNLNENSNGGSTQLVLRHCIREGGHDVPSNKDVTSLDWNTNGTLLATGSYDGFARIWTEDGNLASTLGQHKGPIFALKWNRKGNYILSAGVDKTTIIWDAHTGEAKQQFPFHSAPALDVDWQNNTTFASCSTDMCIHVCRLGCDRPVKTFQGHTNEVNAIKWDPSGMLLASCSDDMTLKIWSMKQEVCIHDLQAHNKEIYTIKWSPTGPATSNPNSNIMLASASFDSTVRLWDIERGVCTHTLTKHQEPVYSVAFSPDGKYLASGSFDKCVHIWNTQSGNLVHSYRGTGGIFEVCWNARGDKVGASASDGSVCVLDLRK
